From paper PMC10647173 come the findings set out here.

The chains behind the UniProt entries cited, without tags or fusion partners.
UniProt Q02085: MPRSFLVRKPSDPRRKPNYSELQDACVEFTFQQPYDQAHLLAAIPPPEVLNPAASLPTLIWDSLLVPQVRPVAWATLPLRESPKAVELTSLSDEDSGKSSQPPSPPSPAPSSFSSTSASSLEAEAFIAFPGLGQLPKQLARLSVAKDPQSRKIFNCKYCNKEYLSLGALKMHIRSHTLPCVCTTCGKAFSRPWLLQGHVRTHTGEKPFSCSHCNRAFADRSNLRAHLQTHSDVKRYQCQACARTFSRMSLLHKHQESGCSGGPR

The experiment deals with SNAIL1 (in the co-precipitation with KHSRP) (UniProt Q02085). In words: co-IP; co-precipitation told only in the discussion; no figure, cells and antibodies not stated.

Results are given in words; binding and its absence hold for the method and conditions named. In cells and extracts the contact can be indirect. Some entries that bind do so weakly or less than the wild type.

B1: KHSRP (protein, UniProt Q3U0V1 1-748)
chain: MSDYNTGGPPPGPPPPAGGGGGAAGAGGGPPPGPPGAGDRGGGGPGGGGPGGGGASGGPSQPPGGGGPGIRKDAFADAVQRARQIAAKIGGDAATTVNNNTPDFGFGGQKRQLEDGDQPDSKKLASQGDSIGSQLGPIHPPPRTSMTEEYRVPDGMVGLIIGRGGEQINKIQQDSGCKVQISPDSGGLPERSVSLTGAPESVQKAKMMLDDIVSRGRGGPPGQFHDNANGGQNGTVQEIMIPAGKAGLVIGKGGETIKQLQERAGVKMILIQDGSQNTNVDKPLRIIGDPYKVQQACEMVMDILRERDQGGFGDRNEYGSRVGGGIDVPVPRHSVGVVIGRSGEMIKKIQNDAGVRIQFKQDDGTGPEKIAHIMGPPDRCEHAARIINDLLQSLRSGPPGPPGAPGMPPGGRGRGRGQGNWGPPGGEMTFSIPTHKCGLVIGRGGENVKAINQQTGAFVEISRQLPPNGDPNFKLFVIRGSPQQIDHAKQLIEEKIEGPLCPVGPGPGGPGPAGPMGPFNPGPFNQGPPGAPPHAGGPPPHQYPPQGWGNTYPQWQPPAPHDPNKAAAAATDPNAAWAAYYSHYYQQPPGPVPGPAPAPAAPPAQGEPPQPPPTGQSDYTKAWEEYYKKIGQQPQQPGAPPQQDYTKAWEEYYKKQAQVATGGGPGAPPGSQPDYSAAWAEYYRQQAAYYGQTPGPGGPQPPPTQQGQQQASGNCHPPPPPFSFQPPATVHPALVGSAGNPFPCGVCP
For B1, the binding result is on record as “binds”.
